# In PMC5974162, “Characterization of Ferredoxin-Dependent Biliverdin Reductase PCYA1 Reveals the Dual Function in Retrograde Bilin Biosynthesis and Interaction With Light-Dependent Protochlorophyllide Oxidoreductase LPOR in Chlamydomonas reinhardtii” (Frontiers in Plant Science, 2018):
# Results are given in words; binding and its absence hold for the method and conditions named. For part of these data: In cells and extracts the contact can be indirect. For part of these data: Sequences can lack the tags named with a protein.
# T1: AtHY2ΔTP (amino acids 46-329) in pGBKT7 (Arabidopsis thaliana) (UniProt Q9SR43)
# T1 sequence: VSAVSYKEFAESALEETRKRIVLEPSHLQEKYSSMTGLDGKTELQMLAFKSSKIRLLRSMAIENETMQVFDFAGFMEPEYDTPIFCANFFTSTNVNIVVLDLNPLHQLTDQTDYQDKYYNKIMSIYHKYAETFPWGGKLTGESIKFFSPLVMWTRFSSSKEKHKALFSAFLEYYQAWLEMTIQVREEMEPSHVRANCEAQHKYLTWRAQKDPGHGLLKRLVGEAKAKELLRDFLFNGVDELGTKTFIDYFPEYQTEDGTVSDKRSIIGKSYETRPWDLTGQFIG
# T2: cLUC-AtHY2ΔTP (Arabidopsis thaliana) (UniProt Q9SR43)
# T2 sequence: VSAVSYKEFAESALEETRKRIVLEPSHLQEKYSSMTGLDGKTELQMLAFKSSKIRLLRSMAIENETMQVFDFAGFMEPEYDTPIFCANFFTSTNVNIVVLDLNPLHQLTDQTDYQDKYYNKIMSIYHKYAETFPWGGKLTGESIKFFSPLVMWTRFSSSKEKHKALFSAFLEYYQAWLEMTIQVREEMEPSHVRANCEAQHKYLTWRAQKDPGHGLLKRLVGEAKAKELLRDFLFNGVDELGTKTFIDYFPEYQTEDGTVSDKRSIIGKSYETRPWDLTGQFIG
# Biological target: T1, AtHY2ΔTP (amino acids 46-329) in pGBKT7 (Arabidopsis thaliana)
# Test: two-hybrid; Matchmaker Gold system; baits in pGBKT7 (Y2H Gold) mated with preys in pGADT7 (Y187); spotted on SD/-Trp-Leu, SD/-Trp-Leu-Ade-His and SD/-Trp-Leu with 80 μg/ml X-gal, 28°C, 2-3 days
row,Binder,binding
1,"AtPORCΔTP (amino acids 67-401) in pGADT7 (domain or fragment, UniProt O48741 67-401) AQTVTATPPANEASPEQKKTERKGTAVITGASSGLGLATAKALADTGKWHVIMACRNFLKAEKAARSVGMSKEDYTVMHLDLASLESVKQFVENFRRTEQPLDVLVCNAAVYQPTAKEPSFTAEGFEISVGTNHLGHFLLSRLLLDDLKKSDYPSKRMIIVGSITGNTNTLAGNVPPKANLGDLRGLASGLNGQNSSMIDGGEFDGAKAYKDSKVCNMLTMQELHRRYHEETGVTFASLYPGCIATTGLFREHIPLFRLLFPPFQKYITKGYVSEEEAGKRLAQVVSDPSLGKSGVYWSWNNNSSSFENQLSKEASDAEKAKKLWEVSEKLVGLA",no binding
2,"AtPORAΔTP (amino acids 54-405) in pGADT7 (domain or fragment, UniProt Q42536 54-405) CKREQSLRNNKAIIRAQAIATSTPSVTKSSLDRKKTLRKGNVVVTGASSGLGLATAKALAETGKWHVIMACRDFLKAERAAQSAGMPKDSYTVMHLDLASLDSVRQFVDNFRRAEMPLDVLVCNAAVYQPTANQPTFTAEGFELSVGINHLGHFLLSRLLIDDLKNSDYPSKRLIIVGSITGNTNTLAGNVPPKANLGDLRGLAGGLNGLNSSAMIDGGDFVGAKAYKDSKVCNMLTMQEFHRRFHEDTGITFASLYPGCIATTGLFREHIPLFRTLFPPFQKYITKGYVSESEAGKRLAQVVADPSLTKSGVYWSWNKTSASFENQLSQEASDVEKARRVWEVSEKLVGLA",no binding
3,"AtPORBΔTP (amino acids 44-401) in pGADT7 (domain or fragment, UniProt P21218 44-401) SEHGSSSLRFKREQSLRNLAIRAQTAATSSPTVTKSVDGKKTLRKGNVVVTGASSGLGLATAKALAETGKWNVIMACRDFLKAERAAKSVGMPKDSYTVMHLDLASLDSVRQFVDNFRRTETPLDVLVCNAAVYFPTAKEPTYSAEGFELSVATNHLGHFLLARLLLDDLKKSDYPSKRLIIVGSITGNTNTLAGNVPPKANLGDLRGLAGGLNGLNSSAMIDGGDFDGAKAYKDSKVCNMLTMQEFHRRFHEETGVTFASLYPGCIASTGLFREHIPLFRALFPPFQKYITKGYVSETESGKRLAQVVSDPSLTKSGVYWSWNNASASFENQLSEEASDVEKARKVWEISEKLVGLA",no binding

# Biological target: T2, cLUC-AtHY2ΔTP (Arabidopsis thaliana)
# Test: split reporter; split-luciferase complementation; cLUC and nLUC fusions co-expressed in Nicotiana benthamiana leaves by Agrobacterium infiltration; luminescence imaged 48 h after infiltration with 1 mM luciferin
row,Binder,binding
1,"nLUC-AtPORAΔTP (domain or fragment, UniProt Q42536 54-405) CKREQSLRNNKAIIRAQAIATSTPSVTKSSLDRKKTLRKGNVVVTGASSGLGLATAKALAETGKWHVIMACRDFLKAERAAQSAGMPKDSYTVMHLDLASLDSVRQFVDNFRRAEMPLDVLVCNAAVYQPTANQPTFTAEGFELSVGINHLGHFLLSRLLIDDLKNSDYPSKRLIIVGSITGNTNTLAGNVPPKANLGDLRGLAGGLNGLNSSAMIDGGDFVGAKAYKDSKVCNMLTMQEFHRRFHEDTGITFASLYPGCIATTGLFREHIPLFRTLFPPFQKYITKGYVSESEAGKRLAQVVADPSLTKSGVYWSWNKTSASFENQLSQEASDVEKARRVWEVSEKLVGLA",no binding
2,"nLUC-AtPORBΔTP (domain or fragment, UniProt P21218 44-401) SEHGSSSLRFKREQSLRNLAIRAQTAATSSPTVTKSVDGKKTLRKGNVVVTGASSGLGLATAKALAETGKWNVIMACRDFLKAERAAKSVGMPKDSYTVMHLDLASLDSVRQFVDNFRRTETPLDVLVCNAAVYFPTAKEPTYSAEGFELSVATNHLGHFLLARLLLDDLKKSDYPSKRLIIVGSITGNTNTLAGNVPPKANLGDLRGLAGGLNGLNSSAMIDGGDFDGAKAYKDSKVCNMLTMQEFHRRFHEETGVTFASLYPGCIASTGLFREHIPLFRALFPPFQKYITKGYVSETESGKRLAQVVSDPSLTKSGVYWSWNNASASFENQLSEEASDVEKARKVWEISEKLVGLA",no binding
3,"nLUC-AtPORCΔTP (domain or fragment, UniProt O48741 67-401) AQTVTATPPANEASPEQKKTERKGTAVITGASSGLGLATAKALADTGKWHVIMACRNFLKAEKAARSVGMSKEDYTVMHLDLASLESVKQFVENFRRTEQPLDVLVCNAAVYQPTAKEPSFTAEGFEISVGTNHLGHFLLSRLLLDDLKKSDYPSKRMIIVGSITGNTNTLAGNVPPKANLGDLRGLASGLNGQNSSMIDGGEFDGAKAYKDSKVCNMLTMQELHRRYHEETGVTFASLYPGCIATTGLFREHIPLFRLLFPPFQKYITKGYVSEEEAGKRLAQVVSDPSLGKSGVYWSWNNNSSSFENQLSKEASDAEKAKKLWEVSEKLVGLA",no binding
